PubChem BioAssay AID1159578 – Peter MacCallum Cancer Centre, 2015
Shown is one part, drawn at random, of about 18,000 reagents. In the full data, about 1,030 (5.7%) were called active. 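Inactive calls also include pools with fewer than 3300 nuclei, whose migration was not assessed.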 Raw values are not corrected between plates. The numbers tell different reagents against one gene apart.

Purpose: 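Knock-downs that alter how fast lymphatic endothelial cells migrate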 (primary screen)
Cell system: human lymphatic endothelial cells
Knock-down reagent: siRNA pool against human genes, 40 nM
Duration: 48 h after transfection
Read-out: 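High-content imaging of dye-stained cells in a scratch assay measures filled wound area and nuclei per well; duplicate means given as ratio to mock and robust z-score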
Reading the numbers: migration robust z-score: higher = faster migration into the scratch; migration relative to mock: higher = more scratch area covered than mock; nuclei per well: higher = more cells in the well
Rule for the call: 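Migration changed when robust z exceeds 2 or falls below -2 and mean nuclei number is at least 3300; otherwise not called changed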
Calls: active = migration changed; inactive = no migration change, or too few cells

| gene knocked down | pool no. | migration robust z-score | migration class with cell-count check | migration relative to mock | nuclei per well, duplicate mean | call |
| --- | --- | --- | --- | --- | --- | --- |
| RASGRP4 (GeneID 115727) | 1 | -0.06 | migration z between -2 and 2; enough cells | 0.87 | 5617 | inactive |
| REXO1 (GeneID 57455) | 1 | 0.28 | migration z between -2 and 2; enough cells | 0.86 | 5421 | inactive |
| BARHL2 (GeneID 343472) | 1 | 0.98 | migration z between -2 and 2; enough cells | 1.14 | 5720 | inactive |
| PM20D1 (GeneID 148811) | 1 | -0.78 | migration z between -2 and 2; enough cells | 0.66 | 5891 | inactive |
| DYNC1H1 (GeneID 1778) | 1 | -0.35 | migration z between -2 and 2; enough cells | 0.8 | 6600 | inactive |
| LYPLA1 (GeneID 10434) | 1 | 0.7 | migration z between -2 and 2; enough cells | 0.94 | 4867 | inactive |
| LSM7 (GeneID 51690) | 1 | 0.46 | migration z between -2 and 2; enough cells | 1 | 6708 | inactive |
| MIA3 (GeneID 375056) | 1 | -1.86 | migration z between -2 and 2; enough cells | 0.4 | 6204 | inactive |
| ABCB11 (GeneID 8647) | 1 | 0.83 | migration z between -2 and 2; enough cells | 0.96 | 4203 | inactive |
| WDR88 (GeneID 126248) | 1 | -0.05 | migration z between -2 and 2; enough cells | 0.87 | 3728 | inactive |
| CHST6 (GeneID 4166) | 1 | -2.1 | migration z below -2; enough cells | 0.4 | 5450 | active |
| ERRFI1 (GeneID 54206) | 1 | -0.77 | migration z between -2 and 2; enough cells | 0.68 | 6119 | inactive |
| RPS27L (GeneID 51065) | 1 | 1.27 | migration z between -2 and 2; enough cells | 1.22 | 6470 | inactive |
| SPTSSB (GeneID 165679) | 1 | 0.16 | migration z between -2 and 2; enough cells | 0.92 | 5964 | inactive |
| CENPBD1P (GeneID 92806) | 1 | 0.12 | migration z between -2 and 2; enough cells | 0.92 | 6300 | inactive |
| USP50 (GeneID 373509) | 1 | 0.8 | migration z between -2 and 2; enough cells | 1.09 | 6280 | inactive |
| TAS2R10 (GeneID 50839) | 1 | 1.06 | migration z between -2 and 2; enough cells | 1.17 | 5266 | inactive |
| ZNF215 (GeneID 7762) | 1 | 0.11 | migration z between -2 and 2; enough cells | 0.92 | 5978 | inactive |
| TAF1D (GeneID 79101) | 1 | 0.05 | migration z between -2 and 2; enough cells | 0.9 | 6565 | inactive |
| TBC1D3F (GeneID 84218) | 1 | 1.57 | migration z between -2 and 2; enough cells | 1.29 | 6570 | inactive |
| TSPAN5 (GeneID 10098) | 1 | -1.12 | migration z between -2 and 2; enough cells | 0.6 | 5052 | inactive |

The list goes on; the last 6 above are carried over.
| gene knocked down | pool no. | migration robust z-score | migration class with cell-count check | migration relative to mock | nuclei per well, duplicate mean | call |
| --- | --- | --- | --- | --- | --- | --- |
| USP50 (GeneID 373509) | 1 | 0.8 | migration z between -2 and 2; enough cells | 1.09 | 6280 | inactive |
| TAS2R10 (GeneID 50839) | 1 | 1.06 | migration z between -2 and 2; enough cells | 1.17 | 5266 | inactive |
| ZNF215 (GeneID 7762) | 1 | 0.11 | migration z between -2 and 2; enough cells | 0.92 | 5978 | inactive |
| TAF1D (GeneID 79101) | 1 | 0.05 | migration z between -2 and 2; enough cells | 0.9 | 6565 | inactive |
| TBC1D3F (GeneID 84218) | 1 | 1.57 | migration z between -2 and 2; enough cells | 1.29 | 6570 | inactive |
| TSPAN5 (GeneID 10098) | 1 | -1.12 | migration z between -2 and 2; enough cells | 0.6 | 5052 | inactive |
| GRIA2 (GeneID 2891) | 1 | 1.92 | migration z between -2 and 2; enough cells | 1.17 | 6495 | inactive |
| MMP12 (GeneID 4321) | 1 | -0.42 | migration z between -2 and 2; enough cells | 0.73 | 5020 | inactive |
| TCN2 (GeneID 6948) | 1 | 0.99 | migration z between -2 and 2; enough cells | 1 | 6084 | inactive |
| ACSBG2 (GeneID 81616) | 1 | -1.01 | migration z between -2 and 2; enough cells | 0.61 | 5372 | inactive |
| RORA (GeneID 6095) | 1 | -0.02 | migration z between -2 and 2; enough cells | 0.8 | 5224 | inactive |
| CC2D2A (GeneID 57545) | 1 | 1.04 | migration z between -2 and 2; enough cells | 1.16 | 5358 | inactive |
| PACSIN3 (GeneID 29763) | 1 | 0.65 | migration z between -2 and 2; enough cells | 0.93 | 5155 | inactive |
| TMEM234 (GeneID 56063) | 1 | -0.26 | migration z between -2 and 2; enough cells | 0.82 | 7158 | inactive |
| POLR2J3 (GeneID 548644) | 1 | -0.11 | migration z between -2 and 2; enough cells | 0.86 | 5049 | inactive |
| DEFB110 (GeneID 245913) | 1 | 1.49 | migration z between -2 and 2; enough cells | 1.27 | 5986 | inactive |
| DEFB110 (GeneID 245913) | 2 | 0.21 | migration z between -2 and 2; enough cells | 0.94 | 5638 | inactive |
| STARD8 (GeneID 9754) | 1 | -0.68 | migration z between -2 and 2; enough cells | 0.71 | 4962 | inactive |
| ESR2 (GeneID 2100) | 1 | 0.11 | migration z between -2 and 2; enough cells | 0.82 | 6086 | inactive |
| CHMP4A (GeneID 29082) | 1 | -1.49 | migration z between -2 and 2; enough cells | 0.5 | 7193 | inactive |
| SRPRB (GeneID 58477) | 1 | -0.28 | migration z between -2 and 2; enough cells | 0.81 | 4909 | inactive |
| PIAS4 (GeneID 51588) | 1 | -0.98 | migration z between -2 and 2; enough cells | 0.62 | 4710 | inactive |
| AREG (GeneID 374) | 1 | -0.9 | migration z between -2 and 2; enough cells | 0.63 | 4414 | inactive |
| SLC26A3 (GeneID 1811) | 1 | -0.1 | migration z between -2 and 2; enough cells | 0.78 | 6278 | inactive |
| TCEANC2 (GeneID 127428) | 1 | 2.21 | migration z above 2; enough cells | 1.46 | 4236 | active |
| RIN2 (GeneID 54453) | 1 | 0.28 | migration z between -2 and 2; enough cells | 0.96 | 5020 | inactive |
| NKAIN2 (GeneID 154215) | 1 | 0.84 | migration z between -2 and 2; enough cells | 1.1 | 6316 | inactive |
| FCGR3B (GeneID 2215) | 1 | 0.83 | migration z between -2 and 2; enough cells | 0.97 | 5595 | inactive |
| URI1 (GeneID 8725) | 1 | 1.27 | migration z between -2 and 2; enough cells | 1.21 | 5972 | inactive |
| DCTN2 (GeneID 10540) | 1 | 0.32 | migration z between -2 and 2; enough cells | 0.97 | 6942 | inactive |
| LRRC34 (GeneID 151827) | 1 | -0.22 | migration z between -2 and 2; enough cells | 0.83 | 7006 | inactive |
| NTRK2 (GeneID 4915) | 1 | -0.13 | migration z between -2 and 2; enough cells | 0.78 | 5528 | inactive |
| ADRB2 (GeneID 154) | 1 | 0.16 | migration z between -2 and 2; enough cells | 0.84 | 5362 | inactive |
| ALPI (GeneID 248) | 1 | -0.52 | migration z between -2 and 2; enough cells | 0.7 | 4145 | inactive |
| MYOM3 (GeneID 127294) | 1 | 0.62 | migration z between -2 and 2; enough cells | 1.04 | 5946 | inactive |
| SNURF (GeneID 8926) | 1 | 2.03 | migration z above 2; enough cells | 1.41 | 8568 | active |
| SPCS2 (GeneID 9789) | 1 | 1.46 | migration z between -2 and 2; enough cells | 1.27 | 5955 | inactive |
| EXOC1 (GeneID 55763) | 1 | -1.31 | migration z between -2 and 2; enough cells | 0.55 | 5304 | inactive |
| FAM149A (GeneID 25854) | 1 | 0.16 | migration z between -2 and 2; enough cells | 0.92 | 5606 | inactive |
| C10orf53 (GeneID 282966) | 1 | -0.88 | migration z between -2 and 2; enough cells | 0.66 | 5442 | inactive |
| MYO18B (GeneID 84700) | 1 | 1.4 | migration z between -2 and 2; enough cells | 1.07 | 5490 | inactive |
| COMMD2 (GeneID 51122) | 1 | 0.45 | migration z between -2 and 2; enough cells | 1 | 5716 | inactive |
